Results deposited as PubChem BioAssay AID504774 (Drosophila RNAi Screening Center, 2011)

Purpose: 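Knock-downs that shift viability of MMS-exposed cells relative to untreated ones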 (primary screen)
Cells: Drosophila Kc167 cells
Reagents: long dsRNA against Drosophila genes, about 0.25 µg dsRNA per well
Duration: about 6 days: 3 days knock-down, then 3 days with or without MMS
Challenge: methyl methanesulphonate 0.004% (w/v) for 3 days after knock-down
Measurement: 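Viability in wells given MMS, read as ATP luminescence, normalised by quantiles plate by plate and averaged across replicates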
Scale: mean viability with MMS and viability with MMS: higher = more surviving cells after MMS
In all, the deposit lists about 23,000 reagents; this is a random part of those with a known target gene and a result. 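Values are quantile-normalised luminescence on an arbitrary scale; higher means more cells surviving MMS.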 A plus sign joins genes that one reagent is predicted to hit.

no.	gene	dsRNA	mean viability with MMS	viability with MMS, replicate 1	viability with MMS, replicate 2
1	Acat1 (Acetyl-CoA acetyltransferase 1)	DRSC17766	3.53e6	4.34e6	3.45e6
2	CG14280	DRSC14761	3.56e6	4.00e6	4.07e6
3	CG34205	DRSC04149	3.58e6	4.08e6	4.04e6
4	CG34205	DRSC22823	3.11e6	3.67e6	3.80e6
5	CG7378	DRSC20041	3.57e6	4.07e6	4.01e6
6	bic (bicaudal)	DRSC07584	3.51e6	4.03e6	3.91e6
7	CG6066	DRSC15959	3.72e6	4.26e6	4.13e6
8	CG6066	DRSC22228	3.38e6	3.84e6	3.94e6
9	Rpn12 (Regulatory particle non-ATPase 12)	DRSC11275	3.13e6	3.64e6	3.58e6
10	CG11211	DRSC04851	3.59e6	4.16e6	4.00e6
11	CHOp24	DRSC18310	3.50e6	3.87e6	4.07e6
12	Gmap (Golgi microtubule-associated protein)	DRSC19988	3.52e6	3.95e6	4.02e6
13	Gmap (Golgi microtubule-associated protein)	DRSC20057	3.65e6	4.06e6	4.19e6
14	vir-1 (virus-induced RNA 1)	DRSC02501	3.56e6	4.05e6	4.04e6
15	vir-1 (virus-induced RNA 1)	DRSC02863	3.36e6	3.75e6	3.83e6
16	Cph (Chronophage)	DRSC17507	3.61e6	4.08e6	4.08e6
17	Cph (Chronophage)	DRSC18434	3.37e6	3.87e6	3.77e6
18	CG5611	DRSC15843	3.92e6	4.73e6	4.30e6
19	hmw (hemingway)	DRSC16277	3.78e6	4.34e6	4.15e6
20	CG42272	DRSC08766	3.48e6	3.76e6	4.13e6
21	CG42272	DRSC22502	2.94e6	3.71e6	3.70e6
22	CG4230	DRSC02740	3.75e6	4.46e6	4.11e6
23	Ir7f (Ionotropic receptor 7f)	DRSC18012	3.60e6	4.00e6	4.16e6
24	Orco (Odorant receptor co-receptor)	DRSC12358	3.57e6	4.01e6	4.11e6
25	CG15251 (retired record)	DRSC17980	3.57e6	4.06e6	4.02e6
26	Pp1-13C (Protein phosphatase 1 at 13C)	DRSC20269	3.23e6	3.58e6	3.61e6
27	Pp1-13C (Protein phosphatase 1 at 13C)	DRSC23305	3.62e6	4.20e6	4.02e6
28	CG9040	DRSC11053	3.33e6	3.85e6	3.63e6
29	Mal-B1 (Maltase B1)	DRSC02416	3.44e6	3.78e6	4.00e6
30	PH4alphaMP (prolyl-4-hydroxylase-alpha MP)	DRSC17031	3.59e6	4.10e6	4.05e6
31	Sfxn1-3 (Sideroflexin 1/3)	DRSC12183	3.78e6	4.20e6	4.24e6
32	eIF2gamma (eukaryotic translation initiation factor 2 subunit gamma)	DRSC13081	3.27e6	3.75e6	3.74e6
33	eIF2gamma (eukaryotic translation initiation factor 2 subunit gamma)	DRSC16873	3.51e6	4.00e6	3.94e6
34	AP-1sigma (Adaptor Protein complex 1, sigma subunit)	DRSC15899	3.60e6	4.00e6	4.14e6
35	PGRP-SC1b (Peptidoglycan recognition protein SC1b)	DRSC07215	3.58e6	4.10e6	4.03e6
36	CG32813	DRSC17948	3.72e6	4.02e6	4.36e6
37	lgs (legless)	DRSC17152	3.53e6	4.08e6	3.95e6
38	CG4325	DRSC18516	2.86e6	3.63e6	3.64e6
39	CG4325	DRSC23171	3.53e6	4.04e6	4.01e6
40	CG10307	DRSC04057	3.36e6	3.69e6	3.69e6
41	Tsp68C (Tetraspanin 68C)	DRSC09295	3.57e6	4.29e6	3.81e6
42	dib (disembodied)	DRSC08711	3.58e6	4.02e6	4.10e6
43	Hsp70Bb + Hsp70Ba + Hsp70Bc + 1 more	DRSC21247	3.28e6	3.77e6	3.77e6
44	Hsp70Bb + Hsp70Ba + Hsp70Bc + 1 more	DRSC21248	3.24e6	3.72e6	3.76e6
45	Dph4 (Diphthamide biosynthesis 4)	DRSC12318	3.53e6	4.00e6	4.02e6
46	Rbp1 (RNA-binding protein 1)	DRSC16817	3.57e6	4.02e6	4.12e6
47	Syt7 (Synaptotagmin 7)	DRSC17130	3.72e6	4.29e6	4.12e6
48	Syt7 (Synaptotagmin 7)	DRSC17159	3.55e6	4.03e6	4.04e6
49	Polr1H (RNA polymerase I subunit H)	DRSC14594	3.48e6	3.95e6	3.96e6
50	roq (roquin)	DRSC10227	3.90e6	4.45e6	4.26e6
51	l(3)neo43 (lethal (3) neo43)	DRSC14988	3.52e6	3.73e6	4.25e6
52	Or24a (Odorant receptor 24a)	DRSC00768	3.33e6	4.03e6	3.43e6
53	TH1	DRSC20289	3.49e6	4.07e6	3.59e6
54	drongo	DRSC00814	3.44e6	3.78e6	3.94e6
55	Rx (Retinal Homeobox)	DRSC03837	3.54e6	4.04e6	3.99e6
56	Rx (Retinal Homeobox)	DRSC04652	3.49e6	3.86e6	4.05e6
57	Spn28Dc (Serpin 28Dc)	DRSC03029	3.56e6	4.15e6	3.94e6
58	Polr3D (RNA polymerase III subunit D)	DRSC10485	3.35e6	3.72e6	3.84e6
59	Fak (Focal adhesion kinase)	DRSC07426	3.56e6	3.84e6	4.22e6
60	Lipt1 (Lipoyltransferase 1)	DRSC05600	3.58e6	4.06e6	4.04e6
61	Lipt1 (Lipoyltransferase 1)	DRSC07183	3.47e6	3.91e6	3.95e6
62	capt (capulet)	DRSC00676	3.47e6	3.94e6	3.91e6
63	capt (capulet)	DRSC00806	3.57e6	4.09e6	4.03e6
64	128up (upstream of RpIII128)	DRSC05027	3.49e6	4.02e6	3.86e6
65	CG13390	DRSC02261	3.61e6	4.07e6	4.12e6
66	CG3558	DRSC00615	3.72e6	4.13e6	4.35e6
67	Rcc1 (Regulator of chromosome condensation 1)	DRSC09684	3.63e6	4.06e6	4.18e6
68	ScsbetaA (Succinyl-coenzyme A synthetase beta subunit, ADP-forming)	DRSC14446	3.64e6	4.24e6	4.05e6

Ordered by “mean viability with MMS” (high to low): some entries from above
gene	dsRNA	mean viability with MMS	viability with MMS, replicate 1	viability with MMS, replicate 2
CG5611	DRSC15843	3.92e6	4.73e6	4.30e6
hmw (hemingway)	DRSC16277	3.78e6	4.34e6	4.15e6
CG4230	DRSC02740	3.75e6	4.46e6	4.11e6
Cph (Chronophage)	DRSC17507	3.61e6	4.08e6	4.08e6
Ir7f (Ionotropic receptor 7f)	DRSC18012	3.60e6	4.00e6	4.16e6
Orco (Odorant receptor co-receptor)	DRSC12358	3.57e6	4.01e6	4.11e6
CG42272	DRSC08766	3.48e6	3.76e6	4.13e6
Cph (Chronophage)	DRSC18434	3.37e6	3.87e6	3.77e6
CG42272	DRSC22502	2.94e6	3.71e6	3.70e6
